The other results are listed elsewhere or left out. The data scatter; read single values as rough.
These compounds were tested against T1, AKT3 C119 (UniProt Q9Y243) (assay: log2 mean competition ratio of IA-DTB cysteine labelling (DMSO/compound) (log2 ratio); higher = stronger cysteine engagement by compound). Details: 50 µM; treatment time: 4 h; cell line lysate: HEK293T.
T1 sequence (whole entry): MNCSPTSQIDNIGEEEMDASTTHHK
Protocol: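 IA-DTB competitive cysteine chemoproteomics in HEK293T RIPA lysate. Lysates were treated with compound 29 or 30 at 50 or 200 µM for 4 h, then IA-DTB (500 µM, 1 h), trypsin-digested, NeutrAvidin-enriched and analysed by diaPASEF. Competition ratio = intensity DMSO / intensity compound (n=4 treated, n=64 DMSO); binding: mean log2 CR ≥ 1 and p ≤ 0.05 plus QC filters. Target is the cysteine site.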

Amino acid sequences for entries named in this document (tags omitted). A change or cut given only in a name is not applied to a line headed by its entry.
UniProt Q9Y243: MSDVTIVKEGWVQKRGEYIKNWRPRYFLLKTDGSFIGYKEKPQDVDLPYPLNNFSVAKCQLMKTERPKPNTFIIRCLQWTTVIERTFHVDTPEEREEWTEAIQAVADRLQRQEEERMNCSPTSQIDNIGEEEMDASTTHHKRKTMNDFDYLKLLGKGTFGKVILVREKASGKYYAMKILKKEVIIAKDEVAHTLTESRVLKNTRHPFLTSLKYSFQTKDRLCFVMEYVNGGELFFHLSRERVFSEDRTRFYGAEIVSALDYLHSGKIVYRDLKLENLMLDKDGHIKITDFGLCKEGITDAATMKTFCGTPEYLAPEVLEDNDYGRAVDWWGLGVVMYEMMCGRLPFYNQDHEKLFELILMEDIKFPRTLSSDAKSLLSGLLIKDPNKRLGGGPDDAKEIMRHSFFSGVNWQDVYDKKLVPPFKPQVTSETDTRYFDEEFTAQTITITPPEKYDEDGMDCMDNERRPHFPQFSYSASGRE

| Structure (SMILES) | log2 mean competition ratio |
| --- | --- |
| O=C(CCl)N[C@H]1CCCc2ccccc21 | 0.136 |
| O=C(CCl)N[C@@H]1CCCc2ccccc21 | -0.0569 |

Same assay, conditions: 200 µM; treatment time: 4 h; cell line lysate: HEK293T

| Structure (SMILES) | log2 mean competition ratio |
| --- | --- |
| O=C(CCl)N[C@H]1CCCc2ccccc21 | -0.29 |
| O=C(CCl)N[C@@H]1CCCc2ccccc21 | -0.256 |
